Data published in publication PMC10606488, “Usnic Acid Derivatives Inhibit DNA Repair Enzymes Tyrosyl-DNA Phosphodiesterases 1 and 2 and Act as Potential Anticancer Agents” (Genes, 2023).

These molecules were tested on HEK293FT Tdp2−/− cells (assay: Effect of compounds on the cytotoxicity of etoposide, Tdp2 knockout cells). Settings: 10 μM compound; points 0.4, 1.6 and 6 μM etoposide compared; Mann–Whitney test, p = 0.05.
Type: cell-based, human
With `COc1ccc(C=NNc2nc(-c3c(O)c(C)c(O)c4c3OC3=CC(O)=C(C(C)=O)C(=O)C34C)cs2)cc1CN1CCN(c2ccc(F)cc2)CC1` (single isomer, unassigned; (-)) [(−)-11h] the “etoposide concentrations at which metabolic activity of WT and Tdp2−/− cells differs significantly” value was “at points of 1.6 and 6 μM”.
With `CC(=O)C1=C(O)C=C2Oc3c(-c4csc(NN=Cc5ccc[nH]5)n4)c(O)c(C)c(O)c3C2(C)C1=O` (single isomer, unassigned; (-)) [(−)-11a] the “etoposide concentrations at which metabolic activity of WT and Tdp2−/− cells differs significantly” value was “at 1.6 μM”.
In the case of `CC(=O)C1=C(O)C=C2Oc3c(-c4csc(NN=Cc5c[nH]c6ccccc56)n4)c(O)c(C)c(O)c3C2(C)C1=O` (single isomer, unassigned; (-)) [(−)-11d], the “etoposide concentrations at which metabolic activity of WT and Tdp2−/− cells differs significantly” value is reported as “significant at all three points”.
